Source: patent US20240368230A1, “CELL-PENETRATING PEPTIDES COMPRISING MULTIPLE 5-MER ALPHA-HELIX FRAGMENTS AND USES THEREOF” (ArtProBio Co., Ltd., priority 2023, published 2024)
Some entries share one result that the patent states for a list of compounds. Where a SMILES comes first, the peptide text is derived from it.

Test: CD spectroscopy of cell-penetrating peptides (helicity)
Conditions: CD spectra

Compound | helicity ([θ]222/[θ]208)
C[C@H](NC(=O)[C@H](CCC(N)=O)NC(=O)C(C)(C)NC(=O)CNC(=O)C(C)(C)NC(=O)[C@H](CC(N)=O)NC(=O)[C@H](CCCNC(=N)N)NC(=O)[C@H](CCCNC(=N)N)NC(=O)[C@H](C)NC(=O)[C@H](CCC(N)=O)NC(=O)C(C)(C)NC(=O)CNC(=O)C(C)(C)NC(=O)[C@H](CC(N)=O)NC(=O)[C@H](CCCNC(=N)N)NC(=O)[C@H](CCCNC(=N)N)NC(=O)[C@H](C)NC(=O)[C@H](CCC(N)=O)NC(=O)C(C)(C)NC(=O)[C@H](C)NC(=O)C(C)(C)N)C(=O)N[C@@H](CCCNC(=N)N)C(=O)N[C@@H](CCCNC(=N)N)C(=O)N[C@@H](CC(N)=O)C(=O)NC(C)(C)C(=O)NCC(=O)NC(C)(C)C(=O)N[C@@H](CCC(N)=O)C(=O)N[C@@H](C)C(=O)N[C@@H](CCCNC(=N)N)C(=O)N[C@@H](CCCNC(=N)N)C(=O)N[C@@H](CC(N)=O)C(=O)NC(C)(C)C(=O)N[C@@H](C)C(=O)NC(C)(C)C(N)=O [CPP21] (HELM PEPTIDE1{[Aib].A.[Aib].Q.A.R.R.N.[Aib].G.[Aib].Q.A.R.R.N.[Aib].G.[Aib].Q.A.R.R.N.[Aib].G.[Aib].Q.A.R.R.N.[Aib].A.[Aib].[am]}$$$$V2.0; N-terminus assumed) | ≤ 0.5
C[C@H](NC(=O)[C@H](CCC(N)=O)NC(=O)C(C)(C)NC(=O)CNC(=O)C(C)(C)NC(=O)[C@H](CC(N)=O)NC(=O)[C@H](CCCNC(=N)N)NC(=O)[C@H](CCCNC(=N)N)NC(=O)[C@H](C)NC(=O)[C@H](CCC(N)=O)NC(=O)C(C)(C)NC(=O)[C@H](C)NC(=O)C(C)(C)NC(=O)[C@H](CC(N)=O)NC(=O)[C@H](CCCNC(=N)N)NC(=O)[C@H](CCCNC(=N)N)NC(=O)[C@H](C)NC(=O)[C@H](CCC(N)=O)NC(=O)C(C)(C)NC(=O)[C@H](C)NC(=O)C(C)(C)N)C(=O)N[C@@H](CCCNC(=N)N)C(=O)N[C@@H](CCCNC(=N)N)C(=O)N[C@@H](CC(N)=O)C(=O)NC(C)(C)C(=O)NCC(=O)NC(C)(C)C(=O)N[C@@H](CCC(N)=O)C(=O)N[C@@H](C)C(=O)N[C@@H](CCCNC(=N)N)C(=O)N[C@@H](CCCNC(=N)N)C(=O)N[C@@H](CC(N)=O)C(=O)NC(C)(C)C(=O)N[C@@H](C)C(=O)NC(C)(C)C(N)=O [CPP20] (HELM PEPTIDE1{[Aib].A.[Aib].Q.A.R.R.N.[Aib].A.[Aib].Q.A.R.R.N.[Aib].G.[Aib].Q.A.R.R.N.[Aib].G.[Aib].Q.A.R.R.N.[Aib].A.[Aib].[am]}$$$$V2.0; N-terminus assumed) | ≤ 0.5
